The list shows a part of the results.
tested on: T1, CTL2-GFP (C. trachomatis L2/434/Bu, GFP-expressing); set-up: species or system HeLa; Intracellular C. trachomatis growth in HeLa cells, bulk GFP fluorescence relative to DMSO; conditions: bulk GFP, single well; 28.5 h, 10 µM; inhibitor
T1 construct: L2/434/Bu, GFP-expressing

Row | Compound | % of control remaining [%]
1 | Oc1ccc(-n2cc(-c3ccsc3)nn2)cc1 [CBK113093] | 143.195
2 | CCOc1ccsc1C(=O)NC1Cc2ccccc2C1 [CBK200359] | 27.0076
3 | O=C(O)CCSc1nnc2[nH]c3ccccc3n12 [CBK265736] | 161.527
4 | CCCN1CCN(CC(=O)NCc2ccco2)CC1 [CBK270300] | 145.756
5 | COC(=O)CC1C(=O)NCCN1C(=O)COc1ccc(Cl)cc1 (centres unmarked) [CBK264938] | 100
6 | CCn1c2ccccc2n2c(SC(C)C(=O)O)nnc12 (centres unmarked) [CBK267079] | 157.767
7 | CCOc1ccc2c(c1)cc(C(=O)NCc1cc(CC)no1)n2C [CBK281553] | 106.67
8 | Cc1ccccc1-c1nnc(SC(C)C)n1CCN(C)S(C)(=O)=O [CBK200088] | 114.63
9 | CCOC(=O)c1ccc(N2C(=O)CC(N3CCN(c4ncccn4)CC3)C2=O)cc1 (centres unmarked) [CBK263306] | 102.013
10 | OCCn1c(S)nnc1-c1ccccc1 [CBK100025] | 103.57
11 | CN1CCC(C(=O)N2CCN(c3ncccn3)CC2)CC1 [CBK144511] | 102.375
12 | CC(=O)N1CCN(C(C(=O)O)c2c[nH]c3ccc(NC(=O)C(C)C)cc23)CC1 (centres unmarked) [CBK286634] | 103.013
13 | CCC(O)Cn1nc(CCSC)nc1-c1cc(=O)n(C)c2ccccc12 (centres unmarked) [CBK306596] | 140.396
14 | COc1ccc(S(=O)(=O)Nc2ccc(S(=O)(=O)Nc3nccs3)cc2)cc1C [CBK266011] | 181.631
15 | CC(=O)c1ccc2[nH]c(C(=O)O)c(CCN)c2c1 [CBK260944] | 109.899
16 | CN(C)CC(=O)Nc1cc(C(F)(F)F)ccc1Cl [CBK307420] | 118.557
17 | CCC(NS(=O)(=O)c1ccc(Br)cc1)C(=O)O (centres unmarked) [CBK264472] | 100
18 | CC1(C)CC(=O)c2sc(NC(=O)Cc3ccc(Cl)c(Cl)c3)nc2C1 [CBK144103] | 100
19 | CC(C)c1ccc(C(C)NC(=O)Cn2cc(C(=O)NC3CCCC3)ccc2=O)cc1 (centres unmarked) [CBK286121] | 105.071
20 | N#Cc1ccc(CNC(=O)N2CCCC(C(=O)O)C2)cc1 (centres unmarked) [CBK161352] | 133.882
21 | O=C(O)CC1(CC(=O)Nc2ccc(N3CCCC3=O)c(Cl)c2)CCCCC1 [CBK296664] | 157.178
22 | CN1C2C=C(N(CCc3ccccc3)C(=O)c3ccc(-c4ccccc4)cc3)CC1CC2 (centres unmarked) [CBK262596C] | 100
23 | c1nc(Sc2nccs2)cc(N2CCCC2)n1 [CBK093748] | 119.244
24 | Cc1ccc(S(=O)(=O)NCCSCc2cccc(Cl)c2)cc1[N+](=O)[O-] [CBK264116] | 100
25 | Cc1ccc(C2(CN3CCN(Cc4cncn4C)CC3)CC2)cc1 [CBK283308] | 126.542
26 | Cc1ccc(-n2c(SCC(=O)N3CCCCC3)nnc2-c2cc(Br)ccc2O)c(C)c1 [CBK269070] | 115.675
27 | COc1ccc(-c2c(O)n[nH]c2CCC2CCCC2)cc1 [CBK075126] | 129.32

Three entries already listed, sorted by length of the SMILES, smallest number first.
Row | Compound | % of control remaining [%]
23 | c1nc(Sc2nccs2)cc(N2CCCC2)n1 [CBK093748] | 119.244
1 | Oc1ccc(-n2cc(-c3ccsc3)nn2)cc1 [CBK113093] | 143.195
15 | CC(=O)c1ccc2[nH]c(C(=O)O)c(CCN)c2c1 [CBK260944] | 109.899

The list goes on.

Row | Compound | % of control remaining [%]
28 | COc1cc(/C=C2\NC(=O)N(Cc3ccc([N+](=O)[O-])cc3)C2=O)ccc1OC(C)C(=O)O (centres unmarked) [CBK265348] | 108.017
29 | COCCC(=O)N1C[C@@H](c2ccccc2F)[C@@]2(CCCC(=O)N2)C1 [CBK283360] | 132.141
30 | O=C(O)c1cc(NC(=O)C2CCCO2)ccc1O (centres unmarked) [CBK269815] | 98.6234
31 | CCn1ncc(CN2CCC(O)(c3ccc(C)cc3)CC2)c1C [CBK282956] | 101.2
32 | COc1ccc2[nH]cc(CCNC(=O)c3ccc4nc[nH]c4c3)c2c1 [CBK122714] | 110.359
33 | Cc1cc(C)n(C(=O)c2cccc(S(=O)(=O)N3CCCCCC3)c2)n1 [CBK266727] | 123.534
34 | Cc1ccc2c(NC(=O)c3cc4c([nH]c3=O)CCC4)c(C)ccc2n1 [CBK281568] | 111.591
35 | O=C(C1CC1)N1CCc2cc(-c3cn4ccccc4n3)ccc21 [CBK285193] | 91.3839
36 | CC(C)(C)NC(=O)CCn1c(-c2ccncc2)cc2cccnc21 [CBK282620] | 108.941
37 | O=C(N/N=C/c1c[nH]c2ccc(Br)cc12)c1ccncc1 [CBK262798] | 108.144
38 | CC(C)(C)NC(=O)Cn1c(-c2cccs2)cc2cccnc21 [CBK282455] | 128.061
39 | COc1ccc(CNC(=O)CC[C@H]2CNC(=O)[C@H]3NCC[C@H]3N2C)cc1 [CBK289025] | 130.504
40 | FC(F)(F)c1nc2ccccc2nc1SCc1ccccc1 [CBK103732] | 162.75
41 | Clc1nc(NCCN2CCOCC2)nc(N2CCCCCC2)n1 [CBK027412] | 113.601
42 | CCCCNc1nccnc1-c1ccccc1 [CBK088477] | 125.738
43 | CCOC(=O)C1CC2CCC1C[C@]21NC(=O)c2ccccc2N1 (some centres unmarked) [CBK284441] | 106.59
44 | Cc1cc(C)nc(NS(=O)(=O)c2ccc(NC(=O)N3c4ccccc4Sc4ccccc43)cc2)n1 [CBK263922] | 12.1186
45 | COC(=O)c1ccsc1NS(=O)(=O)c1ccc(NC(C)=O)cc1 [CBK039063] | 100.261
46 | CC(C)N(C)CCOc1ncccc1OCCO [CBK039171] | 100
47 | COc1ccc(C2N(Cc3ccccc3)CCN2Cc2ccccc2)c(OC)c1OC [CBK265220] | 112.775
48 | COc1ccc(CC(=O)N2CCCC2c2nc3ccccc3[nH]2)cc1 (centres unmarked) [CBK283666] | 102.312
49 | O=C(Cc1csc(-c2ccc(F)cc2)n1)Nc1ccc(F)cc1 [CBK295177] | 146.384
50 | O=C1C=C(OCc2ccccc2)CN1 [CBK020360] | 144.134
51 | Cc1ccc(C(=O)Nc2cccc3cccnc23)cc1Br [CBK265189] | 115.996
52 | COc1ccc(C(=O)CSc2nnc3n(N)cnn23)cc1 [CBK263201] | 102.709
53 | FC(F)(F)c1ccnc(OCCNc2ccccc2)c1 [CBK115824] | 100
